PubChem BioAssay AID686943 – Drosophila RNAi Screening Center – 2013

Assay: 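Fly genes whose loss alters ERK activation after insulin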 (primary screen)
System: Drosophila S2R+ haemocyte-like cells expressing YFP-tagged ERK (Rolled)
Knock-down reagent: long dsRNA against Drosophila genes
Challenge: insulin stimulation versus unstimulated cells; dose and duration not given
Read-out: 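Antibody staining for doubly phosphorylated ERK divided by ERK-YFP signal, as plate z-scores, in insulin-treated and untreated cells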
Reading the numbers: replicate 1, z-score of dpERK with insulin: higher = more active ERK per ERK-YFP after insulin
The deposit covers about 23,000 reagents; shown is a random part of those with a known target gene and a result. 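Extra replicates exist only for a retested subset of genes; insulin dose and duration not given; both raised and lowered dpERK matter.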 A plus sign joins genes that one reagent is predicted to hit. Not all columns of the deposit are shown. The record does not give: the amount of reagent, the time to read-out.

replicate 1, z-score of dpERK with insulin, by target gene and reagent
ouib (GeneID 41039): DRSC14376 -0.57
sona (GeneID 37762): DRSC04089 0.57; DRSC04574 -0.37; DRSC04575 -0.47
CG8613 (GeneID 36593): DRSC07222 0.29
SkpA (GeneID 31016): DRSC18833 4.14
CG34148 + P5CDh2: DRSC13519 0.61
gNacalpha (GeneID 33279): DRSC00654 -0.18
CG13081 (GeneID 35245): DRSC02185 1.13
COX7B (GeneID 50266): DRSC10895 -1.23
Btnd (GeneID 31552): DRSC18316 -1.23
14-3-3zeta (GeneID 36059): DRSC05028 -1.02
Cks30A (GeneID 34250): DRSC03292 0.06
CG7810 (GeneID 34139): DRSC03072 0.06
CG9519 (GeneID 32415): DRSC20195 -0.16
CG7781 (GeneID 34143): DRSC03068 -0.5
disco-r (GeneID 64875): DRSC20173 -0.09; DRSC20174 0.67
Aasdh (GeneID 34175): DRSC03467 -0.16
Tsen2 (GeneID 318956): DRSC01557 -0.53
CG11658 (GeneID 39319): DRSC09852 -0.06
CG12126 (GeneID 35805): DRSC06103 0.42
fsd (GeneID 36463): DRSC06166 0.67
mRpS14 (GeneID 117414): DRSC19444 0.42
CG14340 (GeneID 33287): DRSC00370 -0.31
CG3376 (GeneID 37884): DRSC04362 -0.57
CG17343 (GeneID 35180): DRSC02606 -0.14; DRSC22807 -0.22
CG31174 (GeneID 318616): DRSC13518 0.72
CG15208 (GeneID 32022): DRSC19654 -0.13
CG8046 (GeneID 35936): DRSC07059 0.78
Hgsnat (GeneID 31423): DRSC18405 0.34
Neurochondrin (GeneID 40796): DRSC12580 1.14
Nrx-1 (GeneID 42646): DRSC16184 0.03
CG30485 (GeneID 246644): DRSC06376 1.15
CG40341 (retired record) (GeneID 3885621): DRSC01767 0.52; DRSC03750 1.47
JMJD7 (GeneID 39514): DRSC09703 0.89
CtsL4 (GeneID 34401): DRSC02849 -0.33
en (GeneID 36240): DRSC07609 -0.24
RalGPS (GeneID 36881): DRSC06941 0.49
CG6026 (GeneID 42287): DRSC15950 -0.07
Nse1 (GeneID 33938): DRSC02147 -0.17
Dys (GeneID 42327): DRSC13360 -1.54; DRSC13364 -0.31; DRSC15260 1.38; DRSC16218 0.25; DRSC16219 0.06; DRSC16220 0.64; DRSC16935 0.46
CG30398 (GeneID 246591): DRSC03891 -0.55
Droj2 (GeneID 41646): DRSC16450 2.27
Idh3a (GeneID 32940): DRSC19446 -0.01
CG2614 (GeneID 35326): DRSC02711 0.74
eIF3i (GeneID 33710): DRSC03464 -1.9
Abcd3 (GeneID 32992): DRSC19488 -0.75
kud (GeneID 39882): DRSC11086 0.17

A stretch of the results above, for reference:
replicate 1, z-score of dpERK with insulin, by target gene and reagent
CG31174 (GeneID 318616): DRSC13518 0.72
CG15208 (GeneID 32022): DRSC19654 -0.13
CG8046 (GeneID 35936): DRSC07059 0.78
Hgsnat (GeneID 31423): DRSC18405 0.34
Neurochondrin (GeneID 40796): DRSC12580 1.14
Nrx-1 (GeneID 42646): DRSC16184 0.03
CG30485 (GeneID 246644): DRSC06376 1.15
CG40341 (retired record) (GeneID 3885621): DRSC01767 0.52; DRSC03750 1.47
